{"source": "the supplement of paper PMC7858590", "note": "Several values for one entry are separate records, joined by “and”; a condition that tells them apart may be missing. Equal entries are not always repeated. ± gives the standard deviation of the averaged measurements. The full ranking holds about 3,800 compounds; the median of “cell shape (eccentricity) Z-score vs DMSO control” is about 1.1, and the lowest 2% start at about -4.7. The list shows a part of the results."}
{"system": "human monocyte-derived macrophages (M0)", "experiment": "cell shape (eccentricity) Z-score vs DMSO control; higher = more elongated, M2-like morphology", "conditions": "20 µM; 24 h; macrophage state: M0 (M-CSF)", "experimental": "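Primary human monocyte-derived macrophages (M-CSF differentiated, pooled from 4 donors, 5000 cells/well in 384-well plates) were treated with each compound at 20 uM for 24 h, then fixed and stained with phalloidin/DAPI and imaged on an Opera Phenix (6 fields, about 1000 cells/well). Cell eccentricity was measured with CellProfiler, and a Z-score (t-test) was computed against 4 DMSO control wells in the same row. Negative values mean round (M1-like) cells and positive values mean elongated (M2-like) cells; the paper's hit cutoffs are Z <= -4 (M1) and Z >= 6 (M2). Scale: negative = round, M1-like.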"}
{"smiles": "C[C@H]1O[C@@H](O[C@H]2C[C@@H](O)[C@]3(CO)C4C(CC[C@]3(O)C2)[C@@]2(O)CC[C@H](C3=CC(=O)OC3)[C@@]2(C)C[C@H]4O)[C@@H](O)[C@@H](O)[C@H]1O", "note": "(stereo partly drawn)", "cell shape (Z-score)": -0.886}
{"smiles": "CCN1CC2(COC(=O)c3ccccc3N3C(=O)CC(C)C3=O)CCC(OC)C34C5CC6C(OC)CC(O)(C5C6OC)C(O)(C(OC)C23)C14", "note": "(stereo not drawn)", "cell shape (Z-score)": 2.9}
{"smiles": "CC1(C)C2CC(=O)[C@]3(C)C(CC[C@@]4(C)[C@H](c5ccoc5)OC(=O)C5OC543)[C@@]2(C)[C@@H](O)C[C@H]1O", "note": "(stereo partly drawn)", "cell shape (Z-score)": 1.75}
{"smiles": "NCC(CC(=O)O)c1ccc(Cl)cc1", "note": "(stereo not drawn)", "cell shape (Z-score)": 0.0322}
{"smiles": "O=[As](O)(O)c1ccc(Cc2ccc([As](=O)(O)O)cc2)cc1", "cell shape (Z-score)": -2.05}
{"smiles": "OC1CCCCC1N1CCC(c2ccccc2)CC1", "note": "(stereo not drawn)", "cell shape (Z-score)": 0.22}
{"smiles": "CCc1c(C(=O)C(N)=O)c2c(OCC(=O)O)cccc2n1Cc1ccccc1", "cell shape (Z-score)": 0.42}
{"smiles": "c1cc(Cc2cnc[nH]2)ccn1", "cell shape (Z-score)": 0.892}
{"smiles": "N#CC(C#N)=NNc1ccc(OC(F)(F)F)cc1", "cell shape (Z-score)": 0.853}
{"smiles": "CCC1(c2ccc(N)cc2)CCC(=O)NC1=O", "note": "(stereo not drawn)", "cell shape (Z-score)": -1.83}
{"smiles": "NC1(c2ccccc2Cl)CCCCC1=O", "note": "(stereo not drawn)", "cell shape (Z-score)": -0.0304}
{"smiles": "CCc1c(C(=O)OC)ncc2[nH]c3cc(OC)c(OC)cc3c12", "cell shape (Z-score)": 1.81}
{"smiles": "COc1cc2c(cc1OC)[C@@]13CCN4CC5=CCOC6CC(=O)N2C1[C@H]6[C@H]5C[C@H]43", "note": "(stereo partly drawn)", "cell shape (Z-score)": 3.32}
{"smiles": "CC(C)=CCCN1CCC(NC(=O)[C@](O)(c2ccccc2)C2CCCC2)CC1", "cell shape (Z-score)": 1.18}
{"smiles": "c1ccc2c(c1)OCC(C1=NCCN1)O2", "note": "(stereo not drawn)", "cell shape (Z-score)": 1.7}
{"smiles": "COC(=O)C12CC3CC(C(C)O)C1N(CCc1c2[nH]c2ccc(OC)cc12)C3", "note": "(stereo not drawn)", "cell shape (Z-score)": 2.06}
{"smiles": "Cc1cc2c(C(C)C)c(O)c(O)c(C=O)c2c(O)c1-c1c(C)cc2c(C(C)C)c(O)c(O)c(C=O)c2c1O", "cell shape (Z-score)": "0.971 and 2.41"}
{"smiles": "C#CC(C)(O)CC", "note": "(stereo not drawn)", "cell shape (Z-score)": 0.924}
{"smiles": "C[C@]1(C(=O)O)CCC[C@]2(C)c3cc(O)ccc3CC[C@@H]12", "cell shape (Z-score)": 1.38}
{"smiles": "CCC(C)C(=O)O[C@@H]1C[C@@]2(C)[C@H](c3ccoc3)OC(=O)CC23OC2(C)OC34[C@H](OC(=O)C(C)C)[C@@]3(O)[C@@H](OC(=O)C5(C)OC5C)[C@@]5(C)C[C@]3(O)[C@@](C)([C@H]5CC(=O)OC)C14O2", "note": "(stereo partly drawn)", "cell shape (Z-score)": -2.16}
{"smiles": "CCCCCCCCCOc1ccc2[nH]cc(CCN)c2c1", "cell shape (Z-score)": -1.64}
{"smiles": "N[C@H](CO)Cc1ccccc1", "cell shape (Z-score)": -1.2}
{"smiles": "COc1cc2c(cc1O)CCNC2C", "note": "(stereo not drawn)", "cell shape (Z-score)": 0.68}
{"smiles": "NC1C[C@H]1c1ccccc1", "note": "(stereo partly drawn)", "cell shape (Z-score)": 1.94}
{"smiles": "CC(C)c1cccc(C(C)C)c1O", "cell shape (Z-score)": 3.46}
{"smiles": "CCN1CC2(COC)CCC(O)C34C5CC6C(OC)CC(O)(C5C6O)C(C(OC)C23)C14", "note": "(stereo not drawn)", "cell shape (Z-score)": "1.47 ± 1.2"}
{"smiles": "O=c1cccc2n1C[C@@H]1CNC[C@H]2C1", "cell shape (Z-score)": 1.02}
{"smiles": "CCOC(=O)c1cc2c(cn1)[nH]c1ccccc12", "cell shape (Z-score)": 2.92}
{"smiles": "CC(C)NCC(O)c1ccc([N+](=O)[O-])cc1", "note": "(stereo not drawn)", "cell shape (Z-score)": -1.7}
{"smiles": "CCN1C[C@]2(OC(=O)c3ccccc3NC(C)=O)CCC(OC)[C@]34C1[C@H](CC23)[C@@]1(O)CC(OC)[C@H]2CC4C1(O)[C@H]2OC", "note": "(stereo partly drawn)", "cell shape (Z-score)": 0.943}
{"smiles": "CC(CCc1ccc(O)cc1)O[C@@H]1O[C@H](CO[C@H]2OC[C@](O)(CO)[C@H]2O)[C@@H](O)[C@H](O)[C@H]1O", "note": "(stereo partly drawn)", "cell shape (Z-score)": 1.67}
{"smiles": "COc1cc2c(cc1OC)[C@@H]1C(=O)c3ccc(OC)c(CC=C(C)C)c3O[C@@H]1CO2", "cell shape (Z-score)": -0.546}
{"smiles": "O[C@H]1CC2CCCC(C1)N2Cc1ccccc1", "note": "(stereo not drawn)", "cell shape (Z-score)": 0.751}
{"smiles": "Cc1ccccc1-n1c(Cn2cnc3c(N)ncnc32)nc2cccc(C)c2c1=O", "cell shape (Z-score)": 3.87}
{"smiles": "COC(=O)[C@@H]1C[C@H](OC(C)=O)C(=O)[C@H]2[C@@]1(C)CC[C@H]1C(=O)O[C@H](c3ccoc3)C[C@]21C", "cell shape (Z-score)": 2.72}
{"smiles": "C=C1C(=O)O[C@@H]2[C@H]3C(=C)[C@@H](O)C[C@H]3C(=C)C[C@@H](O)[C@@H]12", "cell shape (Z-score)": -1.82}
{"smiles": "c1ccc2c(c1)[I+]c1ccccc1-2", "cell shape (Z-score)": -7.52}
{"smiles": "O=C1C2CCN(CC2)C1(CO)CO", "cell shape (Z-score)": 2.31}
{"smiles": "CCOc1ccccc1-n1c(C(C)N2CCN(C(=O)COc3ccc(Cl)cc3)CC2)nc2ccccc2c1=O", "note": "(stereo not drawn)", "cell shape (Z-score)": 6.52}
{"smiles": "COc1cc2ccc(=O)oc2c2ccoc12", "cell shape (Z-score)": 5.77}
{"smiles": "CN1CCN(c2ccc3ccccc3n2)CC1", "cell shape (Z-score)": -0.134}
{"smiles": "CC[C@H]1C2CC3[C@@H]4N(C)c5ccccc5[C@]45C[C@@H](C2C5O)N3[C@@H]1O", "note": "(stereo partly drawn)", "cell shape (Z-score)": 0.277}
{"smiles": "CCCCCCN1CCN(c2cccc(Cl)c2)CC1", "cell shape (Z-score)": -0.27}
